Assay results taken from paper PMC9971195.
Results are given in words; binding and its absence hold for the method and conditions named. Binding seen in cells or lysates may run through a third protein. Here binding means that the protein was enriched with, or labelled near, the bait; the list need not be complete.

Target: T1, CEMIP, bait of the Co-IP with mass-spectrometric peptide sequencing (UniProt Q8WUJ3)
T1 sequence: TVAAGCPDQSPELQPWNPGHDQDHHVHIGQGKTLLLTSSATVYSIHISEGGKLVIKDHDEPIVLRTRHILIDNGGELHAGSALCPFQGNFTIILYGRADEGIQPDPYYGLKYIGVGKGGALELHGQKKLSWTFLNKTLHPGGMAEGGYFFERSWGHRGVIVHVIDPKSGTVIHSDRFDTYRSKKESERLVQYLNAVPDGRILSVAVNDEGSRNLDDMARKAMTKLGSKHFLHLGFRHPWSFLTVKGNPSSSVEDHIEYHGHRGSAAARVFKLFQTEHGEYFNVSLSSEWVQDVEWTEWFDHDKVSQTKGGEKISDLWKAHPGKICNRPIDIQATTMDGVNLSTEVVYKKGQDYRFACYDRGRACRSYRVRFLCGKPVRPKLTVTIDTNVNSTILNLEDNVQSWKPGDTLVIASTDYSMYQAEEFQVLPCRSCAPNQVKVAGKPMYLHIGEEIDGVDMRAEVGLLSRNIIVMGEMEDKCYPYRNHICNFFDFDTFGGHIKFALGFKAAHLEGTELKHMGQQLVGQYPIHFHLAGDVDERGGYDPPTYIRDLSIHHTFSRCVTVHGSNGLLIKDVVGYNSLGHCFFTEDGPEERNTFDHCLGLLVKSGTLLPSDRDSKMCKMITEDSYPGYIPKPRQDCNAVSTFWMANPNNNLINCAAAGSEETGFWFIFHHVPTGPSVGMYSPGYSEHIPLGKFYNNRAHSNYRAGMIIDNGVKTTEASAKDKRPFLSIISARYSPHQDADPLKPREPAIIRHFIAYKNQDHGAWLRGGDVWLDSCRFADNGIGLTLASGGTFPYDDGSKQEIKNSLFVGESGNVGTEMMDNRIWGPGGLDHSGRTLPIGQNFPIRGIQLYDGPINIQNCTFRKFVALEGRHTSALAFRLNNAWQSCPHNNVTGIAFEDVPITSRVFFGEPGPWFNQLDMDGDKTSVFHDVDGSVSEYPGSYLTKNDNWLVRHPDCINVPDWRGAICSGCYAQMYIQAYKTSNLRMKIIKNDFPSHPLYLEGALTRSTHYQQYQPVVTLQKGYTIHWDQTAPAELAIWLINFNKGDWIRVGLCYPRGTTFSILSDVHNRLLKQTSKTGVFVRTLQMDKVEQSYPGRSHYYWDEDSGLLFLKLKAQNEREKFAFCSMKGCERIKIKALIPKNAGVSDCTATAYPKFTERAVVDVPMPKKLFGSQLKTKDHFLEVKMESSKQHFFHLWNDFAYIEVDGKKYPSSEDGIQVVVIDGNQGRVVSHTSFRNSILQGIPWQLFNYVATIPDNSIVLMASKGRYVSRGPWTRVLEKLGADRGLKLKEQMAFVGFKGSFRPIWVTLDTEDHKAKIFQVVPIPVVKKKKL
Test: affinity purification with mass spectrometry; Co-IP of CEMIP from cells (cells not stated), NETN buffer (20 mM Tris HCl pH 8.0, 100 mM NaCl, 1 mM EDTA, 0.5% Nonidet P-40), Protein G agarose beads, overnight at 4 °C; precipitates analysed by NanoLC mass spectrometer

B1: GRAF1, hit of the CEMIP Co-IP with mass-spectrometric peptide sequencing (protein, UniProt Q9UNA1 1-814)
chain: MGLPALEFSDCCLDSPHFRETLKSHEAELDKTNKFIKELIKDGKSLISALKNLSSAKRKFADSLNEFKFQCIGDAETDDEMCIARSLQEFATVLRNLEDERIRMIENASEVLITPLEKFRKEQIGAAKEAKKKYDKETEKYCGILEKHLNLSSKKKESQLQEADSQVDLVRQHFYEVSLEYVFKVQEVQERKMFEFVEPLLAFLQGLFTFYHHGYELAKDFGDFKTQLTISIQNTRNRFEGTRSEVESLMKKMKENPLEHKTISPYTMEGYLYVQEKRHFGTSWVKHYCTYQRDSKQITMVPFDQKSGGKGGEDESVILKSCTRRKTDSIEKRFCFDVEAVDRPGVITMQALSEEDRRLWMEAMDGREPVYNSNKDSQSEGTAQLDSIGFSIIRKCIHAVETRGINEQGLYRIVGVNSRVQKLLSVLMDPKTASETETDICAEWEIKTITSALKTYLRMLPGPLMMYQFQRSFIKAAKLENQESRVSEIHSLVHRLPEKNRQMLQLLMNHLANVANNHKQNLMTVANLGVVFGPTLLRPQEETVAAIMDIKFQNIVIEILIENHEKIFNTVPDMPLTNAQLHLSRKKSSDSKPPSCSERPLTLFHTVQSTEKQEQRNSIINSSLESVSSNPNSILNSSSSLQPNMNSSDPDLAVVKPTRPNSLPPNPSPTSPLSPSWPMFSAPSSPMPTSSTSSDSSPVRSVAGFVWFSVAAVVLSLARSSLHAVFSLLVNFVPCHPNLHLLFDRPEEAVHEDSSTPFRKAKALYACKAEHDSELSFTAGTVFDNVHPSQEPGWLEGTLNGKTGLIPENYVEFL
- binding: binds
